Results: US8475804B2 (priority 2009, dated 2013)
At least one structure is not confirmed: it was looked up by name or label, or the drawing left a doubt.

System: Ebola virus
Type: cell-based, Ebolavirus (EBOV)

CC(=O)OC[C@H]1O[C@@H]([S-])[C@H](OC(C)=O)[C@@H](OC(C)=O)[C@@H]1OC(C)=O.CCP(CC)CC.[Au+] [Auranofin]
Max Effect: 0.020
